In PubChem BioAssay AID445 (National Center for Advancing Translational Sciences (NCATS), 2006):
Some of the results follow. Further columns of the screen follow, without active or inactive calls. The list favours compounds with an active or inconclusive main result. The note in brackets gives the kind of curve behind each potency; many fits are weak.

assay: IkB Signaling; conditions: ABC-DLBCL IkBa-CBG/CBR dual luciferase ratio (green luciferase fused to IkBa over red control in OCI-Ly3 lymphoma cells), 4 h; measured here: control luc red channel unless noted
Outline: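 Luminescence ratio of IκBα-fused green versus native red beetle luciferase in OCI-Ly3 cells, 4 h post-doxycycline with compound; red signal alone, scaled from basal (0%) to zero light (-100%), flagged nonspecific or cytotoxic effects.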

Compound | AC50
Cc1cccc(Nc2nnc(-n3nc(C)cc3C)c3ccccc23)c1 | 2 µM [rising, partial curve]
COc1ccc2c(CNCc3ccc(Cl)cc3)c(C(=O)O)n(Cc3ccccc3C)c2c1 | 10 µM [falling, partial curve, poor fit]
O=C(c1ccco1)N1CCN(c2nc3ccccc3n3nnnc23)CC1 | 0.251 µM [falling, full curve]
Cc1ccc2c(c1)nnn2C1CCN(S(=O)(=O)c2ccc(C(=O)N(C)C3CCCCC3)cc2)CC1 | 12.6 µM [falling, partial curve]
COc1ccc(NC(=O)c2cnn(-c3ccc(C)cc3)c2-n2cccc2)cc1Cl | 5.01 µM [falling, full curve]
O=C(Cn1c(=O)oc2ccccc21)NCc1cccc(Cl)c1 | 0.251 µM [rising, full curve]
COc1ccc(Cl)cc1NC(=O)Cn1c2ncccc2c(=O)n1-c1ccc(C)c(C)c1 | 0.0794 µM [rising, full curve, poor fit]
Cc1ccc(-n2nc3c(=O)n(CC(=O)Nc4ccccc4F)nc(C)c3c2C)c(C)c1 | 12.6 µM [falling, partial curve]
Cc1cc(NS(=O)(=O)c2ccc(NC(=O)COc3ccc(Cl)cc3)cc2)nc(C)n1 | 12.6 µM [falling, partial curve]
Cc1ccc(NC(=O)Nc2nnc(N(C)Cc3ccccc3)s2)cc1 | 20 µM [falling, single point]
COc1ccc(S(=O)(=O)N2CCC(c3ccncc3)CC2)cc1Cl | 25.1 µM [falling, single point]
CN(C(=O)c1cc(-c2ccccc2O)on1)c1ccccc1 | 0.01 µM [falling, full curve]
CCCCOc1c(Cl)cc(C(=O)N(Cc2ccc(C)o2)C2CCS(=O)(=O)C2)cc1Cl (stereo not drawn) | 15.8 µM [falling, partial curve]
Cc1ccc(NS(=O)(=O)c2cccc(C(=O)OCC(=O)NCc3ccco3)c2)cc1 | 25.1 µM [falling, partial curve]
CSc1ccc(CCNc2ncnc3onc(C)c23)cc1 | 25.1 µM [falling, single point]
COc1ccc(NC(=O)c2ccc(-c3ccc(-c4noc(C)n4)cc3C)cc2)cc1OCCN(C)C | 39.8 µM [falling, single point]
COc1ccc(C(CNC(=O)COc2ccc(C)cc2)N2CCCCC2)cc1 (stereo not drawn) | 39.8 µM [falling, single point]
COc1ccccc1NC(=O)c1c(NCc2sccc2C)sc2c1CCCCC2 | 10 µM [falling, partial curve]

Filtered by structure, those above containing a furan ring, fused or not.
Compound | AC50
O=C(c1ccco1)N1CCN(c2nc3ccccc3n3nnnc23)CC1 | 0.251 µM [falling, full curve]
CCCCOc1c(Cl)cc(C(=O)N(Cc2ccc(C)o2)C2CCS(=O)(=O)C2)cc1Cl (stereo not drawn) | 15.8 µM [falling, partial curve]
Cc1ccc(NS(=O)(=O)c2cccc(C(=O)OCC(=O)NCc3ccco3)c2)cc1 | 25.1 µM [falling, partial curve]
